Reference: publication PMC8511046
Results are given in words; binding and its absence hold for the method and conditions named. In cells and extracts the contact can be indirect. Some entries that bind do so weakly or less than the wild type.

Chains of the proteins cited; added tags and fusions are not shown.
UniProt P11798: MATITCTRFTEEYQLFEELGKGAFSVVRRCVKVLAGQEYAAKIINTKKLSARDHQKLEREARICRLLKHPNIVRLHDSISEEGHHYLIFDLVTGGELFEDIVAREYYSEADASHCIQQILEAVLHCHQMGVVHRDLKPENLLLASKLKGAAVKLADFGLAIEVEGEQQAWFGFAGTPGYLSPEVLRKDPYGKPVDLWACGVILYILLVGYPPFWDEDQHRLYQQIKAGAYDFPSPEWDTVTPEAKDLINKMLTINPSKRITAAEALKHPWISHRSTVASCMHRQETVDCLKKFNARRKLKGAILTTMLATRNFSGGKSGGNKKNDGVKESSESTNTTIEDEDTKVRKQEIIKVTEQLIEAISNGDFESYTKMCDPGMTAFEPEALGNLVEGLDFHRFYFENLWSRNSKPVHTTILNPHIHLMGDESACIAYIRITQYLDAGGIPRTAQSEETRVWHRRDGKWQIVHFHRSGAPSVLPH

T1: vezatin (mouse (endogenous in mouse hippocampus)) (UniProt Q3ZK22)
T1 sequence: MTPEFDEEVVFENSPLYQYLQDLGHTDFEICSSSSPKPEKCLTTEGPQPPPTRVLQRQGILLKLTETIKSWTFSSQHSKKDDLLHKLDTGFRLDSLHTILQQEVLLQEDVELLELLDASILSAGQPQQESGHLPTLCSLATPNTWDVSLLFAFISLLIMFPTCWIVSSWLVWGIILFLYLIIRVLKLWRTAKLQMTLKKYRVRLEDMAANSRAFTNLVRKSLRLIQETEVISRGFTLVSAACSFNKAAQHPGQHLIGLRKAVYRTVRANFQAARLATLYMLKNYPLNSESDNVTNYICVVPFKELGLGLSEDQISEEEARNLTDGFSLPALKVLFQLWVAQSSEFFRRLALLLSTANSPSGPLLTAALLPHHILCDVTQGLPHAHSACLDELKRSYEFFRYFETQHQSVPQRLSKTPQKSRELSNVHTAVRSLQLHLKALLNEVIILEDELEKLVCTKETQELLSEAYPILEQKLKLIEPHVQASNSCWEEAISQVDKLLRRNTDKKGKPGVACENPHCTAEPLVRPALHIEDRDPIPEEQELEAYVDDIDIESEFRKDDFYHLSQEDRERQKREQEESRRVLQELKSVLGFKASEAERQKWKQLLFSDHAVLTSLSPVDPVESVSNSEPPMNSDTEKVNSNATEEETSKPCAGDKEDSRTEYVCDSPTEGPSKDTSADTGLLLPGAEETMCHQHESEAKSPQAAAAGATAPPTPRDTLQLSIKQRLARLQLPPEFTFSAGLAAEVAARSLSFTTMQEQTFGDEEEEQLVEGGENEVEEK


Biological target: T1, vezatin (mouse (endogenous in mouse hippocampus))
Test: co-IP; whole protein extract of mouse brain (hippocampus) tissue, pre-cleared with IgG and Protein A + G agarose; antibody overnight at 4 °C, beads 3 h at 4 °C, five washes with lysis buffer; western blot; endogenous proteins

binding	Molecule
binds	calcium/calmodulin-dependent kinase II-α (from UniProt P11798 1-478) (enzyme)
binds	AKAP150 (protein, UniProt D3YVF0 1-745) METSVSEIQVETKDEKGPVAASPQKERQERKTATLCFKRRKKANKTKPKAGSRTAEETKKHTPEAGGSGQRQPAGAWASIKGLVTHRKRSEPAKKQKPPEAEVQPEDGALPKKKAKSRLKFPCLRFSRGAKRSRHSKLTEDSGYVRVQGEADDLEIKAQTQPDDQAIQAGSTQGLQEGVLVRDGKKSQESHISNSVTSGENVIAIELELENKSSAIQMGTPELEKETKVITEKPSVQTQRASLLESSAAGSPRSVTSAAPPSPATTHQHSLEEPSNGIRESAPSGKDDRRKTAAEEKKSGETALGQAEEAAVGQADKRALSQAGEATAGHPEEATVIQAESQAKEGKLSQAEETTVAQAKETVLSQAKEGELSQAKKATVGQAEEATIDHTEKVTVDQAEETTVGQAEEATVGQAGEAILSQAKEATVVGQAEEATVDRAEEATVGQAEEATVGHTEKVTVDQAEEATVGQAEEATVGQAEEATVDWAEKPTVGQAEEATVGQAEEATVGHTEKVTVDQAEEATVGQAEEATVGHTEKVTVDHAEEATVGQAEEATVGQAEKVTVDHAEEATVGQAEEATVGQAEKVTVDHAEEATVGQAEEATVGQAEKVTVDQAEEPTVDQAEEAISSHAPDLKENGIDTEKPRSEESKRMEPIAIIITDTEISEFDVKKSKNVPKQFLISMENEQVGVFANDSDFEGRTSEQYETLLIETASSLVKNAIELSVEQLVNEMVSEDNQINTLFQ
